Results deposited as PubChem BioAssay AID686938 (Drosophila RNAi Screening Center, 2013)
In all, the deposit lists about 23,000 reagents; below is a random part of those that have a named target and a result. In the full data, 75 (0.33%) were called active. 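Raw plate signals without normalisation; calls rest on plate z-scores that were not deposited; ratio present for only 364 wells.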 A plus sign joins genes that one reagent is predicted to hit. Not given: the dose of the treatment.

Aim: 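Looking for CRAC channel components and the factors controlling them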 (primary screen)
System: Drosophila S2R+ cells
Reagent: long dsRNA against Drosophila genes, about 0.25 µg dsRNA per well, roughly 10,000 cells
Time to read-out: 5 days of knock-down before the calcium assay
Challenge: thapsigargin (SERCA pump blocker) to empty calcium stores; entry signal taken 4 min after adding it
Measurement: 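Duplicate raw fluo-4 intensities per well from a plate reader, at rest and four minutes after thapsigargin emptied calcium stores; entry-to-rest ratio filled for only some wells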
Direction: calcium entry signal: higher = stronger calcium signal after store depletion; entry to resting ratio: higher = more calcium entry relative to resting level; resting calcium signal: higher = higher resting calcium signal
Rule for the call: 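Hit if the duplicate-averaged plate z-score for entry over resting signal is under −3; wells with weak total dye signal (Fmax z < −2) or more than 5 off-targets removed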
Calls: active = strongly reduced calcium entry; inactive = no strong reduction

gene	PubChem SID	calcium entry signal, replicate 1 (fluorescence units)	calcium entry signal, replicate 2 (fluorescence units)	entry to resting ratio	resting calcium signal, replicate 1 (fluorescence units)	resting calcium signal, replicate 2 (fluorescence units)	outcome
Hyccin	SID104186775	3.16e7	2.58e7		1.50e7	1.30e7	inactive
NijA	SID104190429	2.14e7	2.34e7		1.09e7	1.02e7	inactive
Arc1	SID104185951	3.26e7	7.06e7		1.43e7	3.06e7	inactive
CG6041	SID104198188	3.76e7	4.47e7		1.86e7	2.02e7	inactive
Sry-beta	SID104196660	3.75e7	4.27e7		1.63e7	2.02e7	inactive
CG17839	SID104190082	4.43e7	5.66e7		1.96e7	2.06e7	inactive
CG17839	SID104190083	4.06e7	5.41e7		1.87e7	1.96e7	inactive
Hsp70Bb + Hsp70Bbb	SID104195677	4.37e7	2.20e7		2.18e7	1.18e7	inactive
CG31300	SID104194449	2.97e7	5.39e7		1.68e7	2.25e7	inactive
Bap170	SID104184756	4.19e7			2.04e7		inactive
Bap170	SID104201476	3.67e7	3.24e7		2.06e7	1.58e7	inactive
CG14053	SID104197700	3.60e7	7.80e7	1.9	1.88e7	2.75e7	inactive
MFS18	SID104180244	1.08e8			2.68e7		inactive
Pgm1	SID104190282	3.75e7	4.34e7		1.83e7	2.91e7	inactive
CheB42b	SID104202237	4.53e7	3.62e7		2.16e7	1.52e7	inactive
RhoGAP15B	SID104199716	2.67e7	2.40e7		1.30e7	1.14e7	inactive
RhoGAP15B	SID104199717	4.26e7	3.06e7		2.13e7	1.44e7	inactive
CG4849	SID104195454	2.56e7	1.99e7		1.60e7	1.19e7	inactive
CG15126	SID104186340	5.50e7	4.42e7		2.40e7	2.12e7	inactive
Mfe2	SID104199661	4.09e7	4.00e7		1.98e7	1.79e7	inactive
Ip6k	SID104183846	2.95e7			1.58e7		inactive
Dpy-30L2	SID104187997	4.27e7	4.80e7		2.10e7	2.24e7	inactive
CG43155	SID104199434	3.11e7	8.82e7		1.47e7	3.46e7	inactive
CG43155	SID104199569	3.07e7	6.22e7		1.58e7	2.69e7	inactive
Cec2	SID104201516	2.82e7	3.62e7		1.24e7	1.82e7	inactive
Cdc37	SID104188440	4.45e7	3.89e7		2.40e7	2.17e7	inactive
Cnx99A + Cnx14D	SID104196402	3.22e7	4.84e7		1.70e7	2.21e7	inactive
Su(var)2-10	SID104187513	4.25e7	4.54e7		2.04e7	2.04e7	inactive
pyd	SID104192504	3.25e7	4.36e7		1.51e7	2.32e7	inactive
pyd	SID104194179	3.18e7	3.46e7		1.38e7	1.63e7	inactive
pyd	SID104194237	4.81e7	4.13e7		2.45e7	2.01e7	inactive
pyd	SID104194301	4.73e7	3.99e7		2.50e7	1.94e7	inactive
pyd	SID104196339	3.24e7	3.26e7		1.46e7	1.54e7	inactive
pyd	SID104196340	4.81e7	4.65e7		2.48e7	2.06e7	inactive
pyd	SID104196833	4.78e7	4.50e7		2.28e7	1.99e7	inactive
pyd	SID104201243	3.54e7	3.24e7		2.00e7	1.47e7	inactive
pyd	SID104202473	3.89e7	3.53e7		1.83e7	1.58e7	inactive
TTLL4A	SID104182320	3.81e7			1.69e7		inactive

Ordered by “calcium entry signal, replicate 2 (fluorescence units)” (lowest first): some entries from above
gene	PubChem SID	calcium entry signal, replicate 1 (fluorescence units)	calcium entry signal, replicate 2 (fluorescence units)	entry to resting ratio	resting calcium signal, replicate 1 (fluorescence units)	resting calcium signal, replicate 2 (fluorescence units)	outcome
pyd	SID104196339	3.24e7	3.26e7		1.46e7	1.54e7	inactive
pyd	SID104194179	3.18e7	3.46e7		1.38e7	1.63e7	inactive
pyd	SID104194301	4.73e7	3.99e7		2.50e7	1.94e7	inactive
pyd	SID104194237	4.81e7	4.13e7		2.45e7	2.01e7	inactive
pyd	SID104192504	3.25e7	4.36e7		1.51e7	2.32e7	inactive

Further records:
gene	PubChem SID	calcium entry signal, replicate 1 (fluorescence units)	calcium entry signal, replicate 2 (fluorescence units)	entry to resting ratio	resting calcium signal, replicate 1 (fluorescence units)	resting calcium signal, replicate 2 (fluorescence units)	outcome
CG11291	SID104183889	4.08e7	4.64e7		2.03e7	2.09e7	inactive
Psf1	SID104188430	2.63e7	4.47e7		1.07e7	1.79e7	inactive
Sgsh	SID104194563	1.57e7	2.75e7		2.45e7	1.20e7	inactive
CG32544	SID104199825	2.38e7	4.06e7		2.00e7	1.61e7	inactive
ppk14	SID104183030	3.74e7	3.47e7		2.04e7	1.66e7	inactive
SMC5	SID104191641	2.54e7	3.78e7		1.13e7	2.50e7	inactive
CG9782	SID104198937	3.25e7	4.59e7		1.72e7	2.25e7	inactive
CG9782	SID104200001	2.99e7	2.71e7		1.56e7	1.21e7	inactive
rk	SID104183394	4.83e7	2.95e7		2.14e7	1.44e7	inactive
CG9815	SID104184359	3.59e7	4.20e7		1.96e7	1.75e7	inactive
CG34175	SID104180216	2.85e7	2.80e7		1.38e7	1.28e7	inactive
Sk2	SID104188348	3.56e7	2.24e7		2.55e7	1.04e7	inactive
ix	SID104186117	3.43e7	3.96e7		1.83e7	1.74e7	inactive
spz5	SID104188437	4.70e7	3.72e7		2.20e7	1.91e7	inactive
Plod	SID104190393	4.95e7	2.81e7		3.19e7	1.36e7	inactive
Plod	SID104190394	3.00e7	5.33e7		1.61e7	2.31e7	inactive
CG5776	SID104182683	3.80e7			1.83e7		inactive
CG7916	SID104181693	4.91e7	3.06e7		2.19e7	1.46e7	inactive
mamo	SID104198793	1.49e7	2.23e7		9.72e6	1.34e7	inactive
mamo	SID104199162	2.92e7	2.30e7		1.59e7	1.10e7	inactive
mamo	SID104199163	2.72e7	2.79e7		1.50e7	1.36e7	inactive
mamo	SID104199164	3.26e7	2.83e7		1.64e7	1.41e7	inactive
mamo	SID104199165	2.83e7	3.59e7		1.58e7	1.69e7	inactive
mamo	SID104202392	3.11e7	3.17e7		1.50e7	1.63e7	inactive
